Results published in paper PMC9512801.
Read-outs that look alike come from different tables or passages of the source. No constants are given. Whether binding was seen depends on the method and setting. Binding seen in cells or lysates may run through a third protein. Some results given as binding are weak or reduced against the parent protein; the word gives no strength. Values belong to the molecule of their own block, whether it stands above or below them.

Protein sequences, listed by entry. Tags and fused reporters are not part of them.
UniProt P19878: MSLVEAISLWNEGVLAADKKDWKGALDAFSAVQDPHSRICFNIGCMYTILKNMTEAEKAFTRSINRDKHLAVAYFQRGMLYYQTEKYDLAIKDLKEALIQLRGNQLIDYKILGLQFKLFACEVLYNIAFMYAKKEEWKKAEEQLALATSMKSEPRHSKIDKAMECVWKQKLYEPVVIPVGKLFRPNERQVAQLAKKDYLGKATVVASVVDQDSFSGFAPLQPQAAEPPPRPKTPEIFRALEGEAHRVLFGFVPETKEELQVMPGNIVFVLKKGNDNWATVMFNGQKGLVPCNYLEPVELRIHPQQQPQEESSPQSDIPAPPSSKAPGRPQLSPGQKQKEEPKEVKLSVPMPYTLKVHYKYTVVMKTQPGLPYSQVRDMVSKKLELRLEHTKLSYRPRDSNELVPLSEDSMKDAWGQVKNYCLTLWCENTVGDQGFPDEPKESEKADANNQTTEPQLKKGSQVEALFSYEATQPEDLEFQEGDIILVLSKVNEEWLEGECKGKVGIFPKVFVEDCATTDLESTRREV
UniProt P14598: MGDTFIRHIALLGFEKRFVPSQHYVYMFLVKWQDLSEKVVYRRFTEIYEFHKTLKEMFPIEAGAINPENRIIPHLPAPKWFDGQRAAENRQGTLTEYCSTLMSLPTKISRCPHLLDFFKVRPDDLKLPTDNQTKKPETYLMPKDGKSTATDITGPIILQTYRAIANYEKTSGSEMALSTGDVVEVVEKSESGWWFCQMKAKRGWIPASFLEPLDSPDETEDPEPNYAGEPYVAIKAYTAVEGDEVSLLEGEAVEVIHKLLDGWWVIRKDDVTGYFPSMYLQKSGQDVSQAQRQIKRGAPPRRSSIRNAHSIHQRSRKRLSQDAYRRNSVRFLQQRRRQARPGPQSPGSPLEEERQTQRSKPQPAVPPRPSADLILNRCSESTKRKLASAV
UniProt Q14145: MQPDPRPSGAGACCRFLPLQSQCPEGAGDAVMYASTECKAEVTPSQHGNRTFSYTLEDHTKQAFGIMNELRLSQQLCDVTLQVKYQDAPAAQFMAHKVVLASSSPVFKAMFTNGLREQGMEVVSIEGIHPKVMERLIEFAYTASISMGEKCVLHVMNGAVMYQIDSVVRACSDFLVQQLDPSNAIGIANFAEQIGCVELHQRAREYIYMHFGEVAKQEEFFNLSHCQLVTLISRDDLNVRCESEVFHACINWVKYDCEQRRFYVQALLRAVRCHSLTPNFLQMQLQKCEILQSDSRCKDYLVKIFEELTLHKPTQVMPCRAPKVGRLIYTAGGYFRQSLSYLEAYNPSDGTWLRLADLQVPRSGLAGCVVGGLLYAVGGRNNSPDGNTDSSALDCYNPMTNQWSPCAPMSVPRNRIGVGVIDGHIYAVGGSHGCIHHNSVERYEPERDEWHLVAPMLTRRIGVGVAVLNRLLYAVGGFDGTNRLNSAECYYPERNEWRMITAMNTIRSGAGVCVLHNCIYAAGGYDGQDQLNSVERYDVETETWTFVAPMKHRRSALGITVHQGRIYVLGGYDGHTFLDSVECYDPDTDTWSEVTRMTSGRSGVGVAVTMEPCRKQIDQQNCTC
UniProt Q16236: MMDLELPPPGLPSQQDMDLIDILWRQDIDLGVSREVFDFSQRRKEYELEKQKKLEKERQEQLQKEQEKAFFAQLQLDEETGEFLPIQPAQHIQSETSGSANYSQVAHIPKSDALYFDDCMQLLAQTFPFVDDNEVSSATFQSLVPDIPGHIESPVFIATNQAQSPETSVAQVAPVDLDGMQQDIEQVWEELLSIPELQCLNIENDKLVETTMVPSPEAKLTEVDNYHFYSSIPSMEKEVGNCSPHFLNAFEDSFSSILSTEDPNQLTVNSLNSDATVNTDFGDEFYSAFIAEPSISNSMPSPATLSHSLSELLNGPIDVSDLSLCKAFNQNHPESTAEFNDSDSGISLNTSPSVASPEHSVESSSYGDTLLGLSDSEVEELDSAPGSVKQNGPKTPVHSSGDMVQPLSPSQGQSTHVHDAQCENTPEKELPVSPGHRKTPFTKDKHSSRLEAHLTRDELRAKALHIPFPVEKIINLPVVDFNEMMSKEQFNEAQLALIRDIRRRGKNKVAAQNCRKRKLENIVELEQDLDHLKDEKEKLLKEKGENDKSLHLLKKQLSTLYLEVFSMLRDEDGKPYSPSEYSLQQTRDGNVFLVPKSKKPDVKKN
UniProt Q86TM6: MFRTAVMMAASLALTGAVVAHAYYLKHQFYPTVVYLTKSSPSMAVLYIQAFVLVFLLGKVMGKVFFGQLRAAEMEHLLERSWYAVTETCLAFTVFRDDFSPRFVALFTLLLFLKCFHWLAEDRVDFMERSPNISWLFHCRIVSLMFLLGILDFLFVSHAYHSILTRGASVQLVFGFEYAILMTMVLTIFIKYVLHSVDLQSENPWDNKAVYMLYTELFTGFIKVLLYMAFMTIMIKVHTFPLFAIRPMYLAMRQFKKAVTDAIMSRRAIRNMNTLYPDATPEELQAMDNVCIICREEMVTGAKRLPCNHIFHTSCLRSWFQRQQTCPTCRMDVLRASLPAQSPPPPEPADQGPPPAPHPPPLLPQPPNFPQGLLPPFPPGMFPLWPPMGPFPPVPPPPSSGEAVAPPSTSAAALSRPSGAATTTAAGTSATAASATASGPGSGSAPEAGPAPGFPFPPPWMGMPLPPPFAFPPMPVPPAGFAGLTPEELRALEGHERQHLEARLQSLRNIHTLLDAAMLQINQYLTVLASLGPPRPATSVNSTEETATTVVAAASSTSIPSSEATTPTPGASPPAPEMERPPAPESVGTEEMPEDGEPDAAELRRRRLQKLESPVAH

Assays:
[1] = target: p67^phox (human (endogenous in EA.hy926)) (UniProt P19878); assay: co-IP; lysates of endothelial cells (control, ox-LDL/HG, with or without Rb1 pretreatment) incubated with IgG or the primary antibody for 2 h at 4 °C, Protein G PLUS-Agarose, washed with PBS, western blot
[2] = target: T1, PGC-1α (human (endogenous in EA.hy926)) (UniProt Q9UBK2); assay: as above
T1 sequence: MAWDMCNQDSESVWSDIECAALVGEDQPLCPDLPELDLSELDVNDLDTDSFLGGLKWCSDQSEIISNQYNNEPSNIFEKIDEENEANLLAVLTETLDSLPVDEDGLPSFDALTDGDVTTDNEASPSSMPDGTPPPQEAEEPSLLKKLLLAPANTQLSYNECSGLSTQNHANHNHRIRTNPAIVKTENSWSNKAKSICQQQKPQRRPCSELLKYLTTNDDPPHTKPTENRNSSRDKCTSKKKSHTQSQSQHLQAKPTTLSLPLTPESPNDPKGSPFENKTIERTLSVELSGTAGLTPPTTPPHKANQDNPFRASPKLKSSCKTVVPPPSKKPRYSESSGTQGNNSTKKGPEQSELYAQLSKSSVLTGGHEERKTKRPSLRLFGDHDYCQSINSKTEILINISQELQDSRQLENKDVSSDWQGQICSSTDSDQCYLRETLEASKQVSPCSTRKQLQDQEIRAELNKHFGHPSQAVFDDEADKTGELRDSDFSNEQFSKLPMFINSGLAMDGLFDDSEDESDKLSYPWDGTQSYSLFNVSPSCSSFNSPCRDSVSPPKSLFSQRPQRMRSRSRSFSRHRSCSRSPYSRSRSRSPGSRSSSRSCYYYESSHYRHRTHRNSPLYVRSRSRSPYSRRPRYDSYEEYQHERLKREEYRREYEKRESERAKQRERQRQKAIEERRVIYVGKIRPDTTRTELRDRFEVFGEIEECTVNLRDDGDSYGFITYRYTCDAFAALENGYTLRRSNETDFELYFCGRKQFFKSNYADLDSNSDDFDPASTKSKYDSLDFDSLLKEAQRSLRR

[3] = target: p47^phox (human (endogenous in EA.hy926)) (UniProt P14598); assay: as above
[4] = target: Keap1 (as in the co-immunoprecipitation with SYVN1, Fig. 5E) (UniProt Q14145); assay: co-IP; interaction of Keap1 with SYVN1 detected by immunoprecipitation; cells, constructs and precipitating antibody not stated
[5] = target: p47^phox (human (endogenous in EA.hy926)) (UniProt P14598); assay: co-IP; lysates of endothelial cells (control, ox-LDL/HG, with or without Rb1 pretreatment) incubated with IgG or the primary antibody for 2 h at 4 °C, Protein G PLUS-Agarose, washed with PBS, western blot; remark: listed apart in the source

binding [1]: binds
Molecule: p47^phox (from UniProt P14598 1-390)

binding [2]: binds
binding [3]: binds
Molecule: Nuclear factor erythroid 2-related factor 2 (Nrf2) (from UniProt Q16236 1-605)

binding [3]: binds
Molecule: Kelch-like ECH-associated protein 1 (Keap1) (from UniProt Q14145 1-624)

binding [4]: binds
Molecule: E3 ligase synovial apoptosis inhibitor 1 (SYVN1) (from UniProt Q86TM6 1-617)

binding [5]: binds
B1: p22^phox (protein, UniProt P13498 1-195)
chain: MGQIEWAMWANEQALASGLILITGGIVATAGRFTQWYFGAYSIVAGVFVCLLEYPRGKRKKGSTMERWGQKYMTAVVKLFGPFTRNYYVRAVLHLLLSVPAGFLLATILGTACLAIASGIYLLAAVRGEQWTPIEPKPRERPQIGGTIKQPPSNPPPRPPAEARKKPSEEEAAVAAGGPPGGPQVNPIPVTDEVV
